Values quoted from earlier work as cited in patent publication US7268148B2, “Compositions and methods for use against acne-induced inflammation and dermal matrix-degrading enzymes” (Regents of the University of Michigan, priority 1999, dated 2007).
At least one compound was matched to its structure with a doubt left.

Test system: AP-1
Details: treatment 24 h prior to UVB irradiation; cited from earlier work

CC(=O)N(O)CCCCCNC(=O)CCC(=O)N(O)CCCCCNC(=O)CCC(=O)N(O)CCCCCN [DFO, Deferroxamine]
reduction of UVB-induced AP-1 transactivation: approximately 80%
